Reference: the supplement of paper PMC10849652
The other results are listed elsewhere or left out.

Amino acid sequences for entries named in this document (tags omitted). A change or cut given only in a name is not applied to a line headed by its entry.
UniProt Q9NV96: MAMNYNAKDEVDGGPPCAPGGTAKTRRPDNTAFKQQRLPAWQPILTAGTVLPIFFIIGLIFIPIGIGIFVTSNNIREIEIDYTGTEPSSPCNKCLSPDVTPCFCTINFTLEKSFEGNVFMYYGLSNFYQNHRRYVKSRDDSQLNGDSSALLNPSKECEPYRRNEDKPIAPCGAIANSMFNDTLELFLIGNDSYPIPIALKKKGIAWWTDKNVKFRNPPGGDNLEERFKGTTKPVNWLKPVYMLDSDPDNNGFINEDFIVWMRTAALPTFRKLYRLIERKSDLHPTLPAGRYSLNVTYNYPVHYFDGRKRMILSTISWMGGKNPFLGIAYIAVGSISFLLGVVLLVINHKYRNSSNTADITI
UniProt P63313: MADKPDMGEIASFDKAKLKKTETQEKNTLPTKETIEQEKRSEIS
UniProt Q0P6H9: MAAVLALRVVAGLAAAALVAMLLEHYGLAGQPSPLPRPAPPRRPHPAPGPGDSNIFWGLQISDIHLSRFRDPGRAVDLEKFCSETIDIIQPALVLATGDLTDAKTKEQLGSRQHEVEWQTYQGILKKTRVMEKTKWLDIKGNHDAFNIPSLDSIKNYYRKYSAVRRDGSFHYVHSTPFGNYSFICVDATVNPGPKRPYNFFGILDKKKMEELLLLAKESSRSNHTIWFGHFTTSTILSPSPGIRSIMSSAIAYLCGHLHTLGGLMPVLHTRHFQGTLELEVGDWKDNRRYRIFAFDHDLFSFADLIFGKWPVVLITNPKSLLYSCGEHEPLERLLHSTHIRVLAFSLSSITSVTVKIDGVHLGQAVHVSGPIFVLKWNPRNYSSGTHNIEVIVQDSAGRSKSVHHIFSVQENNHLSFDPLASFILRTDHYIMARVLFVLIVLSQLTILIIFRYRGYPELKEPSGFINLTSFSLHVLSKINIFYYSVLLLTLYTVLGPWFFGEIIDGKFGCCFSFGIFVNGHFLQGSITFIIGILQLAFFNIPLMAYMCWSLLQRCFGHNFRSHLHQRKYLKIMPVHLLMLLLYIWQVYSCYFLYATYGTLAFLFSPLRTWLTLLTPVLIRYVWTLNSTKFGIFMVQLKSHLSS
UniProt Q9NX00: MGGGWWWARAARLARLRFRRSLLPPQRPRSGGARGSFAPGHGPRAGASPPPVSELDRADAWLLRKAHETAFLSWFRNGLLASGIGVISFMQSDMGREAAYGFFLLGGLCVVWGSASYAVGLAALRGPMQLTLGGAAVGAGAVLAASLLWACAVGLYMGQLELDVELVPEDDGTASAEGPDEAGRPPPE
UniProt Q6PI78: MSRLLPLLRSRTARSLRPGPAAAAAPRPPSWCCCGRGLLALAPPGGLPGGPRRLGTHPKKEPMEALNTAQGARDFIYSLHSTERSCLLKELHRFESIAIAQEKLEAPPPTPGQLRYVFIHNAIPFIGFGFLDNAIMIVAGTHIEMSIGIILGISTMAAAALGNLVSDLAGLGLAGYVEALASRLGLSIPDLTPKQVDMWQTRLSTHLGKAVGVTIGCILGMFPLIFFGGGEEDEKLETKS
UniProt Q96SK2: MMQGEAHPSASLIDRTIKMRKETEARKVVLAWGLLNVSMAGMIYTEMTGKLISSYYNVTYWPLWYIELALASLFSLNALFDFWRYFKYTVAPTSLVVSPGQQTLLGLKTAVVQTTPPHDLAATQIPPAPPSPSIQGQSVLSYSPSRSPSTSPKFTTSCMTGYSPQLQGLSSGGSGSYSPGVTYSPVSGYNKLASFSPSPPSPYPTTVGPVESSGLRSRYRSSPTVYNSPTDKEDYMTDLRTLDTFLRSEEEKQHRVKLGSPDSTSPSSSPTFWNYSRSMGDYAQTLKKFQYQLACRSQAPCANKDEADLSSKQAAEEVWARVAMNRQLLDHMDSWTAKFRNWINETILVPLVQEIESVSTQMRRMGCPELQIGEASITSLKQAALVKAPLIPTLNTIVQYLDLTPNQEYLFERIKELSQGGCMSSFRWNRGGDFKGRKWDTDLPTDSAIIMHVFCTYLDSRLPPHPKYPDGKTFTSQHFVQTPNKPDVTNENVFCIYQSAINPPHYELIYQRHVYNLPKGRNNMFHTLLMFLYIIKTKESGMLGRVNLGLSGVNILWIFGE
UniProt Q9BTV4: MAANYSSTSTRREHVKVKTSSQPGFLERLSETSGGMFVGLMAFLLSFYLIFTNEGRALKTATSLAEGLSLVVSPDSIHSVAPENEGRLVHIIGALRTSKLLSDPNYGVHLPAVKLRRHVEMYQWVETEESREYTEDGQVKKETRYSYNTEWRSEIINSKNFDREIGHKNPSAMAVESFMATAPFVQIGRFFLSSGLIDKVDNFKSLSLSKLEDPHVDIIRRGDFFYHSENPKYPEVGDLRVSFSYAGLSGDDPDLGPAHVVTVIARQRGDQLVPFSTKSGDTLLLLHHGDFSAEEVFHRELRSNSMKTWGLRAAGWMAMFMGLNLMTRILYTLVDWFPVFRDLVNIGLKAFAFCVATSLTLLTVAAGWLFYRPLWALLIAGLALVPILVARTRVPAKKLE
UniProt Q9Y320, whole entry, looked up: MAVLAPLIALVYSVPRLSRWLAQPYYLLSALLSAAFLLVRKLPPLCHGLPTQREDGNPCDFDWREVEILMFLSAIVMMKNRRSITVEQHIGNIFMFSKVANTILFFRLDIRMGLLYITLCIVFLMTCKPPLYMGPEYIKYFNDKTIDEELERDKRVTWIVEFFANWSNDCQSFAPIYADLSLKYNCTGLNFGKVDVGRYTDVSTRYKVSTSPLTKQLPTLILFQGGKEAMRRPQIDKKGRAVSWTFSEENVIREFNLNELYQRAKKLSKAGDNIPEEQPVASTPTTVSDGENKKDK
UniProt P28289: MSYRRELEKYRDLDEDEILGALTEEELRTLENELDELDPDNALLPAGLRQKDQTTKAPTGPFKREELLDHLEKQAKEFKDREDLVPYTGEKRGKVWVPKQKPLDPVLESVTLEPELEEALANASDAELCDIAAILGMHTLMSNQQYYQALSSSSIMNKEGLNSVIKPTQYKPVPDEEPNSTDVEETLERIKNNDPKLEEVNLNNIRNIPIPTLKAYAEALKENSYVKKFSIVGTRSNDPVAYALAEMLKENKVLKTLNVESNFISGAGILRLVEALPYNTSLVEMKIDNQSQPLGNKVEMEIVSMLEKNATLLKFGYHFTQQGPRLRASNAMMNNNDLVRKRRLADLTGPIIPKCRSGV
UniProt Q9NVH6: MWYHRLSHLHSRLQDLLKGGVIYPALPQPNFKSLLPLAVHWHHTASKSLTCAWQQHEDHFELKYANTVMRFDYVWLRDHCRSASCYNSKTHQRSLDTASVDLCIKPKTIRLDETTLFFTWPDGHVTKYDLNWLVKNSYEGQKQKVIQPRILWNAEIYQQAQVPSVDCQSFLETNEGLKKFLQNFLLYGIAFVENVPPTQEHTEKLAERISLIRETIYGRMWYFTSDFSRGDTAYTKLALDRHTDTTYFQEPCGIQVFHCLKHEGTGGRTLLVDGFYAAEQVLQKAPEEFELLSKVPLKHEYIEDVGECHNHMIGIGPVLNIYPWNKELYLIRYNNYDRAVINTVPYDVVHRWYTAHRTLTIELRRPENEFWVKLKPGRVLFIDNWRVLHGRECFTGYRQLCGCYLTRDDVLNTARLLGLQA
UniProt Q96MH6: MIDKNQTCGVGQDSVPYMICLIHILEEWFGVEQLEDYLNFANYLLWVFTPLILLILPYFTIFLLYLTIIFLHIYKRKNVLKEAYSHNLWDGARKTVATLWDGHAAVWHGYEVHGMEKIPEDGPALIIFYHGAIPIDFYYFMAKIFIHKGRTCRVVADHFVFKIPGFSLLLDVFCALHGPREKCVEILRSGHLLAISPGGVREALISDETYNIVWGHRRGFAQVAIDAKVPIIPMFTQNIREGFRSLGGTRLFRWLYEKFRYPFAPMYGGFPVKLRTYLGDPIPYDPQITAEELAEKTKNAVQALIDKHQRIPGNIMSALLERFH
UniProt Q9UM00: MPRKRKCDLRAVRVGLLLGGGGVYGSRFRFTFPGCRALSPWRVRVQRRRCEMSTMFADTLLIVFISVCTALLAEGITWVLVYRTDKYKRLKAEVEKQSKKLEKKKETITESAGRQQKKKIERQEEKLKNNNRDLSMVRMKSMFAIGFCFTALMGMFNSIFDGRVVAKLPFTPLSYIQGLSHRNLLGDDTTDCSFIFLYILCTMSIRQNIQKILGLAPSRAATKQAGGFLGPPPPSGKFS
UniProt Q8TBQ9: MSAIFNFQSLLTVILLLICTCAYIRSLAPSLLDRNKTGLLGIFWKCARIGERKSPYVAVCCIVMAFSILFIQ
UniProt Q9H061: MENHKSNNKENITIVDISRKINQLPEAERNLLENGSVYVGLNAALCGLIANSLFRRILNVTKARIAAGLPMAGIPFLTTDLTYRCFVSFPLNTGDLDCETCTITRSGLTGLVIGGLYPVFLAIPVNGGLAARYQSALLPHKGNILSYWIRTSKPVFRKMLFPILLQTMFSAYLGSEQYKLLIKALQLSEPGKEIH
UniProt Q6UW68: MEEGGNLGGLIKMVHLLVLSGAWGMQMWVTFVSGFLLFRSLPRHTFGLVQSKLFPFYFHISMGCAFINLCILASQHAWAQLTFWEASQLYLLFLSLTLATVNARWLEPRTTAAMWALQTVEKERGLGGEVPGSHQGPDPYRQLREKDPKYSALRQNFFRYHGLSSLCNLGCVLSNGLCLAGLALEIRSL

Columns and labels:
Test in all cases: log2 fold change, soluble protein after heating vs DMSO (PISA); higher = thermal stabilisation; K562 cells, 10 uM, 30 min; active = over 0.2 and 3.5 SD of the protein, either way, in both replicates (recomputed)
[1] = compound: CS(=O)(=O)c1ccc(-c2cnc(N)c(C(=O)Nc3ccccc3)n2)cc1
Procedure, shortened: (§1)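 Soluble protein was quantified by TMTpro 16plex LC-MS/MS after channel sums were equalised. It was obtained as the supernatant after 21,000xg for 90 min from pooled aliquots of K562 cells (2×10^6 cells/mL, 10 μM compound, 30 min) heated for 3 min across 48°C-58°C and extracted in PBS with 0.5% NP-40 at 4°C. Thermal stability values are relative to control samples and come from duplicates. They are given as log2 fold changes.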

crizotinib = compound: C[C@@H](Oc1cc(-c2cnn(C3CCNCC3)c2)cnc1N)c1c(Cl)ccc(F)c1Cl [crizotinib]
Procedure, shortened: as §1

[2] = compound: C[C@@H]1COCCN1C2=NC(=NC(=C2)C3(CC3)S(=O)(=O)C)C4=C5C=CNC5=CC=C4
Procedure, shortened: as §1

[3] = compound: C[C@H](C1=CC=C(C=C1)C(=O)NC2=C3C=CNC3=NC=C2)N
Procedure, shortened: as §1

duvelisib = compound: C[C@H](Nc1ncnc2nc[nH]c12)c1cc2cccc(Cl)c2c(=O)n1-c1ccccc1 [duvelisib]
Procedure, shortened: as §1

gandotinib = compound: Cc1cc(Nc2cc(CN3CCOCC3)c3nc(C)c(Cc4ccc(Cl)cc4F)n3n2)n[nH]1 [gandotinib]
Procedure, shortened: as §1

tozasertib = compound: Cc1cc(Nc2cc(N3CCN(C)CC3)nc(Sc3ccc(NC(=O)C4CC4)cc3)n2)n[nH]1 [tozasertib]
Procedure, shortened: as §1

[4] = compound: Cc1cc(SCc2sc(-c3ccc(C(F)(F)F)cc3)nc2C)ccc1OCC(=O)O
Procedure, shortened: as §1

doramapimod = compound: Cc1ccc(-n2nc(C(C)(C)C)cc2NC(=O)Nc2ccc(OCCN3CCOCC3)c3ccccc23)cc1 [doramapimod]
Procedure, shortened: as §1

ispinesib = compound: Cc1ccc(C(=O)N(CCCN)[C@@H](c2nc3cc(Cl)ccc3c(=O)n2Cc2ccccc2)C(C)C)cc1 [ispinesib]
Procedure, shortened: as §1

bafetinib = compound: Cc1ccc(NC(=O)c2ccc(CN3CC[C@H](N(C)C)C3)c(C(F)(F)F)c2)cc1Nc1nccc(-c2cncnc2)n1 [bafetinib]
Procedure, shortened: as §1

[5] = compound: Cc1cccc(CC(=O)N2CCc3c2ccc(-c2cn(C)c4ncnc(N)c24)c3F)n1
Procedure, shortened: as §1

nilotinib = compound: Cc1cn(-c2cc(NC(=O)c3ccc(C)c(Nc4nccc(-c5cccnc5)n4)c3)cc(C(F)(F)F)c2)cn1 [nilotinib]
Procedure, shortened: as §1

[6] = compound: Cc1nc(Nc2n[nH]c3c2CN(C(=O)N[C@H](CN(C)C)c2ccccc2)C3(C)C)c2sccc2n1
Procedure, shortened: as §1

dasatinib = compound: Cc1nc(Nc2ncc(C(=O)Nc3c(C)cccc3Cl)s2)cc(N2CCN(CCO)CC2)n1 [dasatinib]
Procedure, shortened: as §1

[7] = compound: Cc1ncc(-c2ccnc(Nc3ccc(S(C)(=O)=O)cc3)n2)n1C(C)C
Procedure, shortened: as §1

[8] = compound: Cn1cc(-c2ccc3c(c2)CCN3C(=O)Cc2cccc(C(F)(F)F)c2)c2c(N)ncnc21
Procedure, shortened: as §1

[9] = compound: Cn1cc(-c2ccc3nnc(C(F)(F)c4ccc5ncccc5c4)n3n2)cn1
Procedure, shortened: as §1

tipifarnib = compound: Cn1cncc1[C@@](N)(c1ccc(Cl)cc1)c1ccc2c(c1)c(-c1cccc(Cl)c1)cc(=O)n2C [tipifarnib]
Procedure, shortened: as §1

mubritinib = compound: FC(F)(F)c1ccc(/C=C/c2nc(COc3ccc(CCCCn4ccnn4)cc3)co2)cc1 [mubritinib]
Procedure, shortened: as §1

Measured: log2 fold change

TMEM30A (UniProt Q9NV96)
inactive: [1] 0.097 | crizotinib -0.08 | [2] 0.072 | [3] -0.053 | duvelisib 0.081 | gandotinib 0.019 | tozasertib 0.045 | [4] -0.002 | doramapimod 0.087 | ispinesib -0.012 | bafetinib -0.035 | [5] 0.024 | nilotinib 0.015 | [6] 0.046 | dasatinib -0.013 | [7] 0.013 | [8] 0.011 | [9] 0.013 | tipifarnib 0.025 | mubritinib -0.004

TMSB10 (UniProt P63313)
inactive: [1] 0.014 | crizotinib 0.098 | [2] 0.234 | [3] -0.15 | duvelisib 0.213 | gandotinib 0.123 | tozasertib 0.007 | [4] 0.031 | doramapimod 0.005 | ispinesib 0.269 | bafetinib -0.055 | [5] -0.112 | nilotinib 0.043 | [6] -0.03 | dasatinib 0.025 | [7] -0.072 | [8] 0.166 | [9] 0.337 | tipifarnib 0.119 | mubritinib 0.005

TMEM62 (UniProt Q0P6H9)
inactive: [1] 0.114 | crizotinib 0.067 | [2] 0.087 | [3] -0.027 | duvelisib 0.067 | gandotinib -0.012 | tozasertib -0.032 | [4] 0.091 | doramapimod 0.031 | ispinesib 0.041 | bafetinib 0.211 | [5] -0.014 | nilotinib 0.003 | [6] 0.027 | dasatinib -0.131 | [7] 0.029 | [8] 0.053 | [9] -0.019 | tipifarnib -0.031 | mubritinib -0.08

TMEM160 (UniProt Q9NX00)
inactive: [1] -0.065 | crizotinib -0.198 | [2] -0.074 | [3] 0.162 | duvelisib -0.053 | gandotinib 0.219 | tozasertib -0.064 | [4] -0.136 | doramapimod -0.066 | ispinesib 0.056 | bafetinib 0.061 | [5] -0.114 | nilotinib 0.002 | [6] 0.029 | dasatinib 0.038 | [7] 0.03 | [8] -0.113 | [9] 0.044 | tipifarnib 0.018 | mubritinib -0.087

TMEM65 (UniProt Q6PI78)
inactive: [1] -0.075 | crizotinib 0.036 | [2] 0.267 | [3] -0.07 | duvelisib 0.087 | gandotinib 0.001 | tozasertib 0.029 | [4] -0.042 | doramapimod 0.195 | ispinesib -0.094 | bafetinib -0.014 | [5] -0.022 | nilotinib 0.053 | [6] -0.039 | dasatinib 0.006 | [7] -0.033 | [8] 0.095 | [9] 0.093 | tipifarnib 0.161 | mubritinib 0.05

TMEM209 (UniProt Q96SK2)
inactive: [1] 0.074 | crizotinib -0.062 | [2] 0.061 | [3] 0 | duvelisib 0.01 | gandotinib -0.087 | tozasertib -0.031 | [4] 0.002 | doramapimod 0.032 | ispinesib -0.059 | bafetinib -0.042 | [5] 0.004 | nilotinib -0.02 | [6] -0.029 | dasatinib -0.08 | [7] 0.065 | [8] 0.029 | [9] -0.077 | tipifarnib -0.006 | mubritinib 0.005

TLN1 (UniProt Q9Y490)
inactive: [1] -0.003 | crizotinib 0.019 | [2] 0.059 | [3] -0.009 | duvelisib 0.023 | gandotinib -0.08 | tozasertib 0.034 | [4] 0.053 | doramapimod -0.01 | ispinesib 0.037 | bafetinib 0.013 | [5] 0.018 | nilotinib -0.044 | [6] -0.026 | dasatinib -0.076 | [7] 0.026 | [8] 0.004 | [9] -0.01 | tipifarnib -0.108 | mubritinib 0.036

TMEM43 (UniProt Q9BTV4)
inactive: [1] 0.008 | crizotinib 0.031 | [2] -0.065 | [3] 0.048 | duvelisib 0.025 | gandotinib 0.127 | tozasertib 0.013 | [4] 0.022 | doramapimod 0.048 | ispinesib -0.136 | bafetinib -0.029 | [5] 0.019 | nilotinib 0.041 | [6] 0.029 | dasatinib 0.05 | [7] -0.001 | [8] -0.074 | [9] -0.008 | tipifarnib 0.064 | mubritinib -0.059

TMX2 (UniProt Q9Y320)
inactive: [1] 0.006 | crizotinib 0.014 | [2] 0.038 | [3] -0.037 | duvelisib -0.028 | gandotinib -0.061 | tozasertib -0.047 | [4] 0.015 | doramapimod -0.002 | ispinesib -0.082 | bafetinib -0.086 | [5] -0.027 | nilotinib -0.021 | [6] 0.016 | dasatinib -0.002 | [7] -0.037 | [8] 0.026 | [9] 0.008 | tipifarnib 0.045 | mubritinib 0.04

TMOD1 (UniProt P28289)
inactive: [1] -0.01 | crizotinib -0.109 | [2] -0.046 | [3] 0.199 | duvelisib -0.171 | gandotinib 0.062 | tozasertib 0.014 | [4] 0.029 | doramapimod -0.006 | ispinesib -0.072 | bafetinib 0 | [5] -0.033 | nilotinib -0.032 | [6] -0.176 | dasatinib 0.007 | [7] 0.047 | [8] -0.155 | [9] -0.017 | tipifarnib -0.098 | mubritinib -0.068

TMLHE isoform 8 (UniProt Q9NVH6)
inactive: [1] 0.033 | crizotinib 0.007 | [2] -0.021 | [3] -0.035 | duvelisib 0.088 | gandotinib 0.003 | tozasertib 0.033 | [4] 0.037 | doramapimod -0.001 | ispinesib -0.042 | bafetinib -0.038 | [5] -0.05 | nilotinib -0.015 | [6] 0.074 | dasatinib -0.065 | [7] 0.023 | [8] 0.147 | [9] -0.006 | tipifarnib 0.069 | mubritinib 0.089

TMEM68 (UniProt Q96MH6)
inactive: [1] 0.014 | crizotinib 0.095 | [2] 0.041 | [3] -0.021 | duvelisib 0.023 | gandotinib -0.033 | tozasertib -0.021 | [4] -0.049 | doramapimod 0 | ispinesib -0.025 | bafetinib -0.077 | [5] -0.018 | nilotinib -0.014 | [6] -0.017 | dasatinib -0.076 | [7] -0.015 | [8] 0.06 | [9] 0.034 | tipifarnib 0.058 | mubritinib 0.067

TMCO1 (UniProt Q9UM00)
inactive: [1] -0.016 | crizotinib -0.088 | [2] 0.081 | [3] -0.136 | duvelisib 0.024 | gandotinib -0.166 | tozasertib -0.021 | [4] -0.029 | doramapimod 0.002 | ispinesib -0.229 | bafetinib -0.141 | [5] -0.088 | nilotinib -0.028 | [6] -0.01 | dasatinib -0.008 | [7] 0.037 | [8] 0.088 | [9] 0.089 | tipifarnib 0.082 | mubritinib 0.038

2 successive entries out of the list so far, for reference:
TMEM43 (UniProt Q9BTV4)
inactive: [1] 0.008 | crizotinib 0.031 | [2] -0.065 | [3] 0.048 | duvelisib 0.025 | gandotinib 0.127 | tozasertib 0.013 | [4] 0.022 | doramapimod 0.048 | ispinesib -0.136 | bafetinib -0.029 | [5] 0.019 | nilotinib 0.041 | [6] 0.029 | dasatinib 0.05 | [7] -0.001 | [8] -0.074 | [9] -0.008 | tipifarnib 0.064 | mubritinib -0.059

TMX2 (UniProt Q9Y320)
inactive: [1] 0.006 | crizotinib 0.014 | [2] 0.038 | [3] -0.037 | duvelisib -0.028 | gandotinib -0.061 | tozasertib -0.047 | [4] 0.015 | doramapimod -0.002 | ispinesib -0.082 | bafetinib -0.086 | [5] -0.027 | nilotinib -0.021 | [6] 0.016 | dasatinib -0.002 | [7] -0.037 | [8] 0.026 | [9] 0.008 | tipifarnib 0.045 | mubritinib 0.04

Additional results.

TMEM167A (UniProt Q8TBQ9)
inactive: [1] 0.024 | crizotinib 0.05 | [2] -0.017 | [3] -0.164 | duvelisib 0.067 | gandotinib 0.013 | tozasertib -0.004 | [4] -0.072 | doramapimod -0.167 | ispinesib 0.135 | bafetinib -0.076 | [5] 0.038 | nilotinib 0.047 | [6] -0.024 | dasatinib 0.07 | [7] -0.015 | [8] 0.017 | [9] 0.006 | tipifarnib -0.008 | mubritinib -0.021

TMEM126A (UniProt Q9H061)
inactive: [1] -0.016 | crizotinib 0.059 | [2] 0.101 | [3] -0.064 | duvelisib 0.108 | gandotinib 0.073 | tozasertib -0.03 | [4] -0.101 | doramapimod -0.01 | ispinesib -0.058 | bafetinib -0.05 | [5] -0.008 | nilotinib -0.019 | [6] -0.014 | dasatinib 0.004 | [7] -0.025 | [8] 0.094 | [9] 0.089 | tipifarnib 0.069 | mubritinib 0.052

TMEM205 (UniProt Q6UW68)
inactive: [1] -0.047 | crizotinib 0.122 | [2] 0.201 | [3] -0.162 | duvelisib 0.063 | gandotinib 0.215 | tozasertib 0.046 | [4] -0.098 | doramapimod -0.12 | ispinesib 0.044 | bafetinib -0.162 | [5] 0.2 | nilotinib 0.331 | [6] -0.108 | dasatinib -0.139 | [7] -0.137 | [8] 0.054 | [9] 0.066 | tipifarnib 0.15 | mubritinib 0.116
